No constants are given. Whether binding was seen depends on the method and setting. In cells and extracts the contact can be indirect. Some binding calls cover weakened binding; strength is not graded here. Tags and fused reporters may be left off the sequences shown.
Tests used:
[1] = target: T1, malin-myc (mouse malin with a C-terminal 2x c-myc tag, expressed from the endogenous gene) (mouse) (UniProt Q8BR37); assay: co-IP; anti-c-myc antibody with Protein-G Agarose, or anti-c-myc antibody linked to agarose, on the low-speed supernatant of skeletal muscle of 4-month-old malin-myc mice (WT mice as control), 18-20 h at 4 °C; blotted for c-myc, GYS1 and laforin; also with 0.1 mg/ml α-amylase during the IP, and with 0.1 mg/ml amyloglucosidase on the beads for 2.5 h at 37 °C
T1 sequence: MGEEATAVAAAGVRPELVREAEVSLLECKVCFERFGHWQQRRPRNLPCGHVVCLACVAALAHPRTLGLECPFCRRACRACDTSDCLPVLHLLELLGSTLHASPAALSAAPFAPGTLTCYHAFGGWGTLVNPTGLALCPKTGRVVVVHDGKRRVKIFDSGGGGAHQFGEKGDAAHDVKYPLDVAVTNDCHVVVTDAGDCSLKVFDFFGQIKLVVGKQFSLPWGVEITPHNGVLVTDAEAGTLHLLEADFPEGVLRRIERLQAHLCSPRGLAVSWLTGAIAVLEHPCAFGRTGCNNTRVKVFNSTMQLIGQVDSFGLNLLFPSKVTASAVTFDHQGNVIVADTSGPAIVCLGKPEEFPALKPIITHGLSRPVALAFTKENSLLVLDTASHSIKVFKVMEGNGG

[2] = target: T1, malin-myc (mouse malin with a C-terminal 2x c-myc tag, expressed from the endogenous gene) (mouse); assay: co-IP; anti-c-myc antibody with Protein-G Agarose on the low-speed supernatant of brain of 4-month-old malin-myc mice (WT mice as control); blotted for c-myc, GYS1 and laforin

B1: laforin (enzyme, UniProt Q9WUA5 1-330)
chain: MLFRFGVVVPPAVAGARQELLLAGSRPELGRWEPHGAVRLRPAGTAAGAAALALQEPGLWLAEVELEAYEEAGGAEPGRVDTFWYKFLQREPGGELHWEGNGPHHDRCCTYNEDNLVDGVYCLPVGHWIEATGHTNEMKHTTDFYFNIAGHQAMHYSRILPNIWLGSCPRQLEHVTIKLKHELGVTAVMNFQTEWDIIQNSSGCNRYPEPMTPDTMMKLYKEEGLSYIWMPTPDMSTEGRVQMLPQAVCLLHALLENGHTVYVHCNAGVGRSTAAVCGWLHYVIGWNLRKVQYFIMAKRPAVYIDEDALAQAQQDFSQKFGKVHSSICAL
B1 was tested, and the binding [1] was “binds” and the binding [2] was “binds”.
